PubChem BioAssay AID602196 | INSERM | 2012

Screen: 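Knock-downs that protect lung cancer cells from cisplatin or sensitise them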
Cells: human A549 lung cancer cells
Reagent: siRNA pair against human genes
Timing: 48 h transfection before cisplatin; time from cisplatin to read-out not stated
Challenge: cisplatin at a dose killing half of control-siRNA cells; exact dose and duration not given
Measured: 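Shift in cisplatin death relative to control siRNA, from -50 (all cells die) to +50 (no cells die); siRNAs harmful on their own scored 0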
Scale: two-siRNA summed score (-2 to +2): higher = both siRNAs protect from cisplatin killing; -2 means both sensitise; mean protection from cisplatin (shift in death) and protection from cisplatin (shift in death), siRNA C and protection from cisplatin (shift in death), siRNA D: higher = protection from cisplatin killing
Hit rule: 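Each siRNA scores 0 if harmful alone by LDH or WST-1, otherwise +1 if it reduces and -1 if it increases cisplatin killing; a gene is active when both siRNAs agree (sum +2 or -2)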
Meaning of the calls: active = both siRNAs shift cisplatin killing the same way; inactive = no consistent shift, or siRNA harmful alone
This is a random part of about 23,000 deposited reagents. 455 of all reagents (2%) were called active. 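Active includes both protection and sensitisation; some change values fall well beyond the stated -50 to +50 range.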 No sequences are given here. Not stated in the record: the amount of reagent.

gene | two-siRNA summed score (-2 to +2) | mean protection from cisplatin (shift in death) (%) | protection from cisplatin (shift in death), siRNA C (%) | protection from cisplatin (shift in death), siRNA D (%) | activity call
LOC441045 | 0 | 0.4 | 1.3 | -0.5 | inactive
RGN | 1 | 2.8 | -3.6 | 9.1 | inactive
MPDZ | 0 | -6.3 | -11.2 | -1.4 | inactive
CDK7 | -1 | -4.5 | 10 | -19 | inactive
OR1L3 | 0 | 21.6 | 12.8 | 30.4 | inactive
FGR | 0 | 1.2 | 29.4 | -27 | inactive
SLMAP | 1 | 5.5 | 2.6 | 8.3 | inactive
LOC392314 | 0 | 4.1 | -4.9 | 13 | inactive
NME7 | 0 | 7.5 | 1.2 | 13.8 | inactive
ADAMTS3 | 1 | 16.3 | 20.8 | 11.9 | inactive
NHSL3 | 0 | 5.5 | 7.5 | 3.6 | inactive
LOC442388 | 0 | 13.4 | 7 | 19.8 | inactive
PPP2R3C | 0 | 2.9 | 15.2 | -9.5 | inactive
UBE4B | 1 | 17.9 | 23.7 | 12.1 | inactive
HSCB | 0 | 0.3 | 3.7 | -3.2 | inactive
LOC389777 | 0 | 2.3 | 0.9 | 3.7 | inactive
RPS3 | 0 | 28.4 | 19.1 | 37.7 | inactive
MGMT | -1 | -14.7 | -9.9 | -19.5 | inactive
LOC131909 | 0 | 6.6 | 5.4 | 7.8 | inactive
MAP3K10 | 0 | -12.3 | -8.5 | -16.2 | inactive
TNFSF12 | 0 | -4 | 2.4 | -10.5 | inactive
MGC27382 | 0 | 6.8 | 7.8 | 5.8 | inactive
DOCK11 | 1 | 10.4 | 7.2 | 13.6 | inactive
CLEC2D | 0 | 10.8 | 10.5 | 11.1 | inactive
LOC200226 | 0 | 6.3 | -12.5 | 25.2 | inactive
LOC400041 | 1 | 15 | 7.7 | 22.3 | inactive
TEKT2 | 0 | 10.4 | 9.7 | 11.1 | inactive
LOC388604 | 0 | 7.6 | 3.6 | 11.6 | inactive
ERG28 | 0 | 14.8 | -1.3 | 30.8 | inactive
PSG9 | 0 | 10.7 | 5.2 | 16.2 | inactive
RELA | 0 | 2 | 4.4 | -0.4 | inactive
SCHIP1 | 0 | 8.2 | 11.1 | 5.3 | inactive
LOC392670 | 0 | 7.8 | 4.7 | 10.8 | inactive
KRT27 | 1 | 22.7 | 39.7 | 5.7 | inactive
PTS | 0 | 5.2 | 8.1 | 2.3 | inactive
AASDHPPT | 0 | 5.2 | 9 | 1.4 | inactive
NRN1 | 0 | 0.2 | -0.6 | 1 | inactive
SMIM12 | 0 | 3.3 | 2.2 | 4.4 | inactive
LHX8 | 0 | 5.9 | 3 | 8.8 | inactive

Taken from above.
TEKT2, protection from cisplatin (shift in death), siRNA D (%): 11.1
Value for LOC392314 in “activity call”: inactive
Under “mean protection from cisplatin (shift in death) (%)”, RELA shows 2
For “protection from cisplatin (shift in death), siRNA D (%)”, NRN1 reads 1
